Test results as given in US20190201435.
Results from cells or extracts need not show a direct contact.

Target: p62 endogenous (Homo sapiens) (UniProt Q13501)
Experiment: binding assay
Conditions: iCLIP, among top enriched, protein in cells

Row | Sequence | binding result (some crosslink sites decreased upon DMOG) | binding result
1 | GGCUGGCUUUAGCUCAGCGGUUACUUCGACAGUUCUUUAAUUGAAACAAGCAACCUGUCUGGGUUGUUCGAGACCCGCGGGCGCUCUCCAGUCCUUUU [vtRNA1-1] | binds | 
2 | GGCUGGCUUUAGCUCAGCGGUUACUUCGAGUACAUUGUAACCACCUCUCUGGGUGGUUCGAGACCCGCGGGUGCUUUCCAGCUCUUUU [vtRNA1-2] |  | binds
3 | GGGUCGGAGUUAGCUCAAGCGGUUACCUCCUCAUGCCGGACUUUCUAUCUGUCCAUCUCUGUGCUGGGGUUCGAGACCCGCGGGUGCUUACUGACCCUUU [vtRNA2-1] |  | binds
